Data taken from PubChem BioAssay AID504895 (National Center for Advancing Translational Sciences (NCATS), 2011).
Inconclusive means that the source gave no clear call. Such entries were picked first, then a sample of the others. Potencies of inconclusive entries are doubtful fits and often do not repeat. Activity calls are given as the source filed them. Calls follow the shape of the dose curve; as a rule, active = well fitted curve in the direction sought with a large enough effect; inconclusive = small, poorly fitted or top-dose-only effect, or another doubt; inactive = no such curve, though single readings can be large or run the other way.

Amino acid sequences for entries named in this document (tags omitted). A change or cut given only in a name is not applied to a line headed by its entry.
UniProt O00167: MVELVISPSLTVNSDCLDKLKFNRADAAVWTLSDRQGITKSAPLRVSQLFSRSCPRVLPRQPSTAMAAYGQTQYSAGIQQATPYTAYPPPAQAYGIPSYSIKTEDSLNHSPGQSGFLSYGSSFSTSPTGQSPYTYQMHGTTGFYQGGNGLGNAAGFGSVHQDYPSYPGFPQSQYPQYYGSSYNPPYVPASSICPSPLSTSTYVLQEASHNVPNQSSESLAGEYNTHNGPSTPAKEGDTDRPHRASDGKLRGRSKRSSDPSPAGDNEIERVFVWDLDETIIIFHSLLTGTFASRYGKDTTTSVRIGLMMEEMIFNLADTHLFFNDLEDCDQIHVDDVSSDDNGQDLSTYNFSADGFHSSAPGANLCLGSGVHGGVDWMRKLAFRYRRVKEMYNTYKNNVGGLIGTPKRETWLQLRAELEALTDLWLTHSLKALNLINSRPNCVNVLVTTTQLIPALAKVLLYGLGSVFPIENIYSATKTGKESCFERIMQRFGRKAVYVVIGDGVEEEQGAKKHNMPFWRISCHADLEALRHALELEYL

These compounds were tested against Protein phosphatase EYA2 (Homo sapiens) (UniProt O00167) (assay: Inhibitors of Eya2ED: Hit Confirmation in Primary Screen). Details: Recombinant Eya2ED, OMFP fluorescence phosphatase assay; activity change, negative = inhibition: at the top concentration.
Text: The Eya proteins (Eya1-4) were originally identified as essential co-activators of the Six1 transcription factor. […] Knockdown of Six1 decreases cancer cell proliferation and metastases in several different cancer models. […] A fluorescence-based HTS assay has been perfomed against the Molecular Libraries Small Molecule Repository (MLSMR) and has the AID 488837 in this database. After completion of the primary screen, hits were re-ordered and tested again in the primary screen in a 12 point titration. NIH Chemical Genomics Center [NCGC] NIH Molecular Libraries Probe Centers Network [MLPCN] MLPCN Grant: DA030559-01 Assay Submitter (PI): Rui Zhao, University of Colorado, Denver
The Eya2 enzyme was kindly provided by the laboratory of Dr. Rui Zhao. The 3-O-methyl-fluorescein phosphate (OMFP) substrate and all buffer reagents were purchased from Sigma Aldrich. qHTS Assay Setup: 1. Buffer- 50 mM HEPES pH 7.5, 50 mM NaCl, 5 uM MgCl2, 0.05% BSA, 1 mM DTT. 2. OMFP Stock- 10 mM solution prepared in 100% DMSO and stored in single use aliquots at -20C. Assay Procedure- 1. Dispense 1.5 ul per well of Eya2 at 0.2 uM in black medium binding 1536 well Greiner plate 2. Transfer 23 nl of compound and control compound (EGTA) to plate 3. Incubate at ambient for 10 minutes 4. Dispense 1.5 ul per well of OMFP at 50 uM 5. Incubate at ambient for 10 minutes 6. Read on ViewLux using Excitation = 485 nm, Emission = 525 nm
In the case of `NS(=O)(=O)c1cccc(NC(=O)CSc2nnc3n2CCCCC3)c1`, the Potency is reported as inconclusive: 3680 µM [inhibitor, partial curve, poor fit].
In the case of `CC1=C(C)CC(C(=O)Nc2nccs2)C(C(=O)O)C1` (stereo not drawn), the Potency is reported as inconclusive: 92.3 µM [inhibitor, partial curve].
In the case of `COc1cc(C(=O)Nc2ccc(NC(=O)c3ccccc3Cl)nc2)cc(OC)c1OC`, the “activity change, negative = inhibition” value is reported as inactive: 24.2%.
For `Cc1ccc2c(CN3CCC(C)CC3)cc(=O)oc2c1`, the Potency was inconclusive: 232 µM [inhibitor, partial curve, poor fit].
With `O=C(O)/C=C/C(=O)Nc1ccc2nccnc2c1` the “activity change, negative = inhibition” value was inactive: -13.7%.
In the case of `OCCCN1c2ccccc2Nc2nnc(-c3ccccc3)cc21`, the Potency is reported as inconclusive: 146 µM [inhibitor, single point].
`O=C(Nc1ccccc1C(=O)Nc1ccccc1)c1ccco1` was tested, and the Potency was inconclusive: 5820 µM [inhibitor, partial curve, poor fit].
With `CN(CCCC(=O)N1CCN(c2ncccn2)CC1)S(=O)(=O)c1ccc(F)cc1` the “activity change, negative = inhibition” value was inactive: -1.76%.
With `CC1Cc2ccccc2N1C(=O)C1CCCN(S(=O)(=O)c2cccc3nsnc23)C1` (stereo not drawn) the Potency was inconclusive: 146 µM [inhibitor, partial curve].
In the case of `CC(C)NC(=S)N/N=C/c1ccc(C(C)(C)C)cc1`, the Potency is reported as inconclusive: 58.2 µM [inhibitor, partial curve].
In the case of `CCc1nc(SCC(=O)N2CC(=O)Nc3ccccc32)c2c(C)c(C)sc2n1`, the Potency is reported as inconclusive: 146 µM [inhibitor, partial curve].
`COc1ccc(CCNC(=O)CCSc2nc(-c3ccco3)cc(C(F)(F)F)n2)cc1OC` was tested, and the “activity change, negative = inhibition” value was inactive: -7.04%.
For `CO/N=C(\N)c1nonc1N`, the “activity change, negative = inhibition” value was inactive: 14.5%.
